# Earlier results, collected in patent US20090270496A1, “ANTIFUNGAL COMPOUNDS” (priority 2007, published 2009).
# Tests used:
# [1] = chronic dosing at 100 to 600 mg/day; cited from earlier work
# [2] = human, in vivo; cited from earlier work
structure (smiles),measurement,setting,value
"CCCCc1oc2ccccc2c1C(=O)c1cc(I)c(OCCN(CC)CC)c(I)c1 [Amiodarone, amiodarone]",mean plasma concentration increase for each 100 mg/day administered,[1],500 ng/mL
same,plasma concentration above which adverse side effects are more common,[2],over 2.5 mg/l
